In patent publication US9655377, “Methods of controlling fructan synthesis in plants” (COMMONWEALTH SCIENTIFIC AND INDUSTRIAL RESEARCH ORGANISATION):
For part of these data: A weaker result is weaker than the reference pair of the same experiment. Tags and fusion partners may be left off the protein sequences shown. For part of these data: The exact form of at least one protein or probe is not confirmed.

Legend:
[1] = tested on: T1, TaMYB13-1 (correctly spliced form) (Triticum aestivum); assay: SELEX; conditions: verified in DNA-binding assay; purified recombinant protein; label: biotin
T1 sequence (limits assumed): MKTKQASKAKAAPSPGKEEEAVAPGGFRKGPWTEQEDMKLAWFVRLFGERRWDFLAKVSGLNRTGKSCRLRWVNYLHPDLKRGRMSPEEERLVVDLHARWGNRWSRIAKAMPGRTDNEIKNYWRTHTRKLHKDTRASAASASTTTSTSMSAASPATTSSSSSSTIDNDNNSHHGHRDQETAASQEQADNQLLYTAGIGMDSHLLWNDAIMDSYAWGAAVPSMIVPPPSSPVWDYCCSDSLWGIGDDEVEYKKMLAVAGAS

[2] = tested on: T1, TaMYB13-1 (correctly spliced form) (Triticum aestivum); assay: binding assay; conditions: purified recombinant protein
[3] = tested on: T2, TaMYB13-1 (correctly spliced form, effector) (Triticum aestivum); assay: activity in cells; conditions: duplicated site added to Ta6-SFT1SXR-deltaS1S2, dramatic increase in transactivation; protein in cells; only the site is given
T2 sequence (limits assumed): T1 sequence (limits assumed)

[4] = relative to SynO2m14, only slight competition against SynO2m14, label: biotin

“CCTACCCAACTTATTGTTAGGTACACCTAG (double strand) [selected oligonucleotide (FIG. 9, 9th)]” was tested, and the selection result [1] was “selected”.
“TCGAGGGAATAAAGTTAGTTATGATGT (double strand) [MYB.Ph3-II]”: binds more weakly [2, 4].
“CTGATCATACCAAACTTTATTCGGTAGAGC (double strand) [selected oligonucleotide (FIG. 9, 16th)]” was tested, and the selection result [1] was “selected”.
For “TATGTTAGGTAC (double strand) [Hv6-SFT S1 site]”, the “activity on this sequence” value [3] was “active”.
In the case of “CGAGTTAGGTAACTTTACCTTACGGGCGTA (double strand) [selected oligonucleotide (FIG. 9, 3rd)]”, the selection result [1] is reported as “selected”.
In the case of “GGAAATGAAACCTAACAAAGTTAGGTAAGA (double strand) [selected oligonucleotide (FIG. 9, 10th)]”, the selection result [1] is reported as “selected”.
In the case of “ACCATACCTAACAAATTAGGTACGTCGGGC (double strand) [selected oligonucleotide (FIG. 9, 11th)]”, the selection result [1] is reported as “selected”.
“TTACGAGGAAGTTAGGTTCGACCTAACGCA (double strand) [selected oligonucleotide (FIG. 9, 1st)]” was tested, and the selection result [1] was “selected”.
“TCGAGGGAATTATAACGGTTTTTTGAT (double strand) [MRE2]”: binds more weakly [2, 4].
“CCGTTAGGTCCTGGCTTCCACTAACGTCTA (double strand) [selected oligonucleotide (FIG. 9, 12th)]” was tested, and the selection result [1] was “selected”.
“GCATTAGGTTC (double strand) [Ta1-SST S1 site]”: binds more weakly ([2]; lower affinity than Ta1-SST S2, assayed oligonucleotide may be longer).
For “GGGGTTAGGTACGCCCCACCCACCTACCCG (double strand) [selected oligonucleotide (FIG. 9, 13th)]”, the selection result [1] was “selected”.
“ACACCTACACCTACTTTAATTAGGTATCGA (double strand) [selected oligonucleotide (FIG. 9, 14th)]” was tested, and the selection result [1] was “selected”.
“TCAGATGCGACCTAATAAAGTTAGGTAGGG (double strand) [selected oligonucleotide (FIG. 9, 7th)]” was tested, and the selection result [1] was “selected”.
“TCGGTGTACCTAACAATAAGTTAGGTAGA (double strand) [selected oligonucleotide (FIG. 9, 15th)]” was tested, and the selection result [1] was “selected”.
For “ACACCTGACCTAGAATATTAGGTTGGACGA (double strand) [selected oligonucleotide (FIG. 9, 8th)]”, the selection result [1] was “selected”.
For “TATCCAACTTATTTTTAGGTACATTTAGGA (double strand) [selected oligonucleotide (FIG. 9, 17th)]”, the selection result [1] was “selected”.
For “GATGTTGCTATTTTTTGGTTTGTACCTGTC (double strand) [selected oligonucleotide (FIG. 9, 5th)]”, the selection result [1] was “selected”.
In the case of “TAGGTGTACCTAACAATAAGTTAGGTAGCT (double strand) [selected oligonucleotide (FIG. 9, 4th)]”, the selection result [1] is reported as “selected”.
In the case of “TCGACCGAATAAAGTTTGGTATGATGTGCT (double strand) [selected oligonucleotide (FIG. 9, 2nd)]”, the selection result [1] is reported as “selected”.
“TGTAGGATGGACCGAACAAATTAGGTCATA (double strand) [selected oligonucleotide (FIG. 9, 6th)]” was tested, and the selection result [1] was “selected”.
